Assay results reported in the supplement of paper PMC12823440, “Inhibitors supercharge kinase turnover through native proteolytic circuits” (Nature, 2025).
The other results are listed elsewhere or left out. Hit calls seldom repeat between salt and free forms of one compound.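 Kinases, fused to nanoluciferase, were expressed in K562 cells; luminescence was measured every 4 h from 2 to 18 h as percent of control (DMSO = 100%, positive control = 0%). A time point is decreased if signal falls significantly (2 sigma). Hits were called by the authors by a rule that is not shown; the count of time points alone does not decide it.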

By UniProt entry, the sequences of proteins in these tests, tags left out. Where a name states a change or a piece, a line headed by the entry shows the natural chain unless it says otherwise.
UniProt P31152, whole entry: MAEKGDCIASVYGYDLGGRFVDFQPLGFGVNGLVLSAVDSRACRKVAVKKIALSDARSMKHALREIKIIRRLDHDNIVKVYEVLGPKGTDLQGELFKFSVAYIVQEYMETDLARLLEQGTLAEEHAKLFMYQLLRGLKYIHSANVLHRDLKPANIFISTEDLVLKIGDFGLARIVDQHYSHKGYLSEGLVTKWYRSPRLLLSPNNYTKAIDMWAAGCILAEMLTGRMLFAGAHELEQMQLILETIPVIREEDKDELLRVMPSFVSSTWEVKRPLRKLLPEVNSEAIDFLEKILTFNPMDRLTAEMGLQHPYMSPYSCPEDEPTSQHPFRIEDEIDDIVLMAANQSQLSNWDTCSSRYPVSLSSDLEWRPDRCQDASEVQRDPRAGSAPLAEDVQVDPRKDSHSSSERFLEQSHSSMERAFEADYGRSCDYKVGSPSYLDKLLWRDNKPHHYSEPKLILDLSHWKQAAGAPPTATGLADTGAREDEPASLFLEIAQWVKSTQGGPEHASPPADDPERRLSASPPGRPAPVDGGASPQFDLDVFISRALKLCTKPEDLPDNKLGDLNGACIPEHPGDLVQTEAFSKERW
UniProt Q00535, whole entry, looked up: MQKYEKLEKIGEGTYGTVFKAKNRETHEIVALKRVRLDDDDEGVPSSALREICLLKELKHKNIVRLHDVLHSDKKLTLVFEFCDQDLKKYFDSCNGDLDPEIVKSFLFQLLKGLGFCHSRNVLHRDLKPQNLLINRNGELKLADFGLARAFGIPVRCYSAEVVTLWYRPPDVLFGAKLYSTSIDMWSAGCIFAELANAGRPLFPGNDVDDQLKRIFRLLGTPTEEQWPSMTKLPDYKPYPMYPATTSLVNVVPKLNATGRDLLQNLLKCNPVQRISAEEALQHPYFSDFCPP
UniProt P22607, whole entry, looked up: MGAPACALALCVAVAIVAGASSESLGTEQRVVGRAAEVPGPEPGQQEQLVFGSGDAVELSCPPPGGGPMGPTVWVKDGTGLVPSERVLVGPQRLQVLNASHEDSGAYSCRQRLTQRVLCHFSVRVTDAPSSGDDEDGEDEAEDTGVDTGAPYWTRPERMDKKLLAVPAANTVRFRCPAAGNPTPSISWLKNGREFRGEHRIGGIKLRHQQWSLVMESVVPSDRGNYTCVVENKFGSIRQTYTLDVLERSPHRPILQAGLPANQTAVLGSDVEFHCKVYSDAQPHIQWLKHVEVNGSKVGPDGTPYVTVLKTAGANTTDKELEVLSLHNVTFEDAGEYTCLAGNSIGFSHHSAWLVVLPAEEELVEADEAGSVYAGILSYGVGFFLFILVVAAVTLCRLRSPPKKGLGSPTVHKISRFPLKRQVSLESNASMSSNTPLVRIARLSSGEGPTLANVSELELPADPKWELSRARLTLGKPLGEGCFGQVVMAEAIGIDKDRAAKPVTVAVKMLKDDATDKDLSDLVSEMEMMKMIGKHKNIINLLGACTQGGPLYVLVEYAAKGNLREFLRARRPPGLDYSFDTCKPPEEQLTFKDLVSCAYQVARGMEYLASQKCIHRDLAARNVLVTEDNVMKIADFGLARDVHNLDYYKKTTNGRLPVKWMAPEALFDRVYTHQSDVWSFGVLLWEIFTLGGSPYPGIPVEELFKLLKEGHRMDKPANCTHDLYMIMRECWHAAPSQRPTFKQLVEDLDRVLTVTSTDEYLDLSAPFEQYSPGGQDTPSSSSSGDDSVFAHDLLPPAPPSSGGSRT
UniProt Q15208: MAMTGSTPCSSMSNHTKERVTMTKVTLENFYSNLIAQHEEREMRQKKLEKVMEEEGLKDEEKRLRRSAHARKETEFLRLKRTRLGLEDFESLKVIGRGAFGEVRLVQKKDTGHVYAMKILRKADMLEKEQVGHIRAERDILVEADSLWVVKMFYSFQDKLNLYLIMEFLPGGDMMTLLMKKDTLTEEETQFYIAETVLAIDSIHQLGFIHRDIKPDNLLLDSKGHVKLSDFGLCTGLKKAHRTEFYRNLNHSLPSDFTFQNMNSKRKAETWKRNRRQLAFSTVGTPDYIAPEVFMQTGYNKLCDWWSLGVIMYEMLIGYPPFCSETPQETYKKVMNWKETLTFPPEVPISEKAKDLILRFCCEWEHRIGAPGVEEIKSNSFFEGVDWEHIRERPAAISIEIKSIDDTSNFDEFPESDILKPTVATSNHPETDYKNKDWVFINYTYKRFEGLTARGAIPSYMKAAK
UniProt P49840: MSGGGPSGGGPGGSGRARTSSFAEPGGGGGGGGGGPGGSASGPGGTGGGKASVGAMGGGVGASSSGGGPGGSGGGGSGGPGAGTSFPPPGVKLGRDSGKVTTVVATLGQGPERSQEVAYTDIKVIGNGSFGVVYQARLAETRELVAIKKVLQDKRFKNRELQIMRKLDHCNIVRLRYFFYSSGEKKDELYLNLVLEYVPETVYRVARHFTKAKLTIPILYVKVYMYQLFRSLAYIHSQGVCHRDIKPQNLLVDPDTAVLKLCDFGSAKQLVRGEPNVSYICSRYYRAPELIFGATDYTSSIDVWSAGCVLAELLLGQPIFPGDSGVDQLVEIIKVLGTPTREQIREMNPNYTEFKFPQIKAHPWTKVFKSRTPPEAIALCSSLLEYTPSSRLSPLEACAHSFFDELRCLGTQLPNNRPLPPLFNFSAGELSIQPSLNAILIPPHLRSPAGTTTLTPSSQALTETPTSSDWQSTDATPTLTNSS
UniProt O96013: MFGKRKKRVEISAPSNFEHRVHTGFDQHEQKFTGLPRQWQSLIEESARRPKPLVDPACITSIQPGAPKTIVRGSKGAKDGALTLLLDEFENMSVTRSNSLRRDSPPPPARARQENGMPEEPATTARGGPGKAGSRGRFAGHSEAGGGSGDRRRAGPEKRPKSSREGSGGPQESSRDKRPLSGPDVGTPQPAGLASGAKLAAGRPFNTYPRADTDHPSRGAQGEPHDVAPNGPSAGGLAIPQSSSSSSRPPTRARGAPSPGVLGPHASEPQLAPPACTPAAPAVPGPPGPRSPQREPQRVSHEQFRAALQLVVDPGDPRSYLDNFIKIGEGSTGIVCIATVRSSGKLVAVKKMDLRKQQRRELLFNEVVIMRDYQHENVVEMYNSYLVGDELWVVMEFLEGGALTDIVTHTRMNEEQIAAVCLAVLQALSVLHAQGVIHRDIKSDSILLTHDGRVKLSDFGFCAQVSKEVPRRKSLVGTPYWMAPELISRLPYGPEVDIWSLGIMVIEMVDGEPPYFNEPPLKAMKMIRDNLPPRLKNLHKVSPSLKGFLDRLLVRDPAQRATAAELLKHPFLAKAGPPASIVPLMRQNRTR
UniProt P53350, whole entry: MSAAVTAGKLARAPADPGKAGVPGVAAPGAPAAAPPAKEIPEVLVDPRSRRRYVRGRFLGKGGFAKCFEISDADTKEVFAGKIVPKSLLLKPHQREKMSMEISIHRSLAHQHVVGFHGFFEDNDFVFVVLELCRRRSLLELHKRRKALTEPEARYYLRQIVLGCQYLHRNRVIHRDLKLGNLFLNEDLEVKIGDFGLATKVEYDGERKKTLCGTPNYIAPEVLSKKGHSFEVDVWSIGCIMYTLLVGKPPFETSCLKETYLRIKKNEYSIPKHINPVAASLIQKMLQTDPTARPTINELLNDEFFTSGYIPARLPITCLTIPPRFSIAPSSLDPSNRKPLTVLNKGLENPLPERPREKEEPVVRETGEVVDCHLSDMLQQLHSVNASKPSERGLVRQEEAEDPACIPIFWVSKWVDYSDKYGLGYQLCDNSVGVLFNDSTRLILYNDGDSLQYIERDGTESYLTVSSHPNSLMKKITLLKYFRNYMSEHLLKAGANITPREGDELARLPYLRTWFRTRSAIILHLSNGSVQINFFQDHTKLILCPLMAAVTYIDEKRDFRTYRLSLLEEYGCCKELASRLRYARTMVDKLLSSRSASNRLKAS
UniProt Q9UM73: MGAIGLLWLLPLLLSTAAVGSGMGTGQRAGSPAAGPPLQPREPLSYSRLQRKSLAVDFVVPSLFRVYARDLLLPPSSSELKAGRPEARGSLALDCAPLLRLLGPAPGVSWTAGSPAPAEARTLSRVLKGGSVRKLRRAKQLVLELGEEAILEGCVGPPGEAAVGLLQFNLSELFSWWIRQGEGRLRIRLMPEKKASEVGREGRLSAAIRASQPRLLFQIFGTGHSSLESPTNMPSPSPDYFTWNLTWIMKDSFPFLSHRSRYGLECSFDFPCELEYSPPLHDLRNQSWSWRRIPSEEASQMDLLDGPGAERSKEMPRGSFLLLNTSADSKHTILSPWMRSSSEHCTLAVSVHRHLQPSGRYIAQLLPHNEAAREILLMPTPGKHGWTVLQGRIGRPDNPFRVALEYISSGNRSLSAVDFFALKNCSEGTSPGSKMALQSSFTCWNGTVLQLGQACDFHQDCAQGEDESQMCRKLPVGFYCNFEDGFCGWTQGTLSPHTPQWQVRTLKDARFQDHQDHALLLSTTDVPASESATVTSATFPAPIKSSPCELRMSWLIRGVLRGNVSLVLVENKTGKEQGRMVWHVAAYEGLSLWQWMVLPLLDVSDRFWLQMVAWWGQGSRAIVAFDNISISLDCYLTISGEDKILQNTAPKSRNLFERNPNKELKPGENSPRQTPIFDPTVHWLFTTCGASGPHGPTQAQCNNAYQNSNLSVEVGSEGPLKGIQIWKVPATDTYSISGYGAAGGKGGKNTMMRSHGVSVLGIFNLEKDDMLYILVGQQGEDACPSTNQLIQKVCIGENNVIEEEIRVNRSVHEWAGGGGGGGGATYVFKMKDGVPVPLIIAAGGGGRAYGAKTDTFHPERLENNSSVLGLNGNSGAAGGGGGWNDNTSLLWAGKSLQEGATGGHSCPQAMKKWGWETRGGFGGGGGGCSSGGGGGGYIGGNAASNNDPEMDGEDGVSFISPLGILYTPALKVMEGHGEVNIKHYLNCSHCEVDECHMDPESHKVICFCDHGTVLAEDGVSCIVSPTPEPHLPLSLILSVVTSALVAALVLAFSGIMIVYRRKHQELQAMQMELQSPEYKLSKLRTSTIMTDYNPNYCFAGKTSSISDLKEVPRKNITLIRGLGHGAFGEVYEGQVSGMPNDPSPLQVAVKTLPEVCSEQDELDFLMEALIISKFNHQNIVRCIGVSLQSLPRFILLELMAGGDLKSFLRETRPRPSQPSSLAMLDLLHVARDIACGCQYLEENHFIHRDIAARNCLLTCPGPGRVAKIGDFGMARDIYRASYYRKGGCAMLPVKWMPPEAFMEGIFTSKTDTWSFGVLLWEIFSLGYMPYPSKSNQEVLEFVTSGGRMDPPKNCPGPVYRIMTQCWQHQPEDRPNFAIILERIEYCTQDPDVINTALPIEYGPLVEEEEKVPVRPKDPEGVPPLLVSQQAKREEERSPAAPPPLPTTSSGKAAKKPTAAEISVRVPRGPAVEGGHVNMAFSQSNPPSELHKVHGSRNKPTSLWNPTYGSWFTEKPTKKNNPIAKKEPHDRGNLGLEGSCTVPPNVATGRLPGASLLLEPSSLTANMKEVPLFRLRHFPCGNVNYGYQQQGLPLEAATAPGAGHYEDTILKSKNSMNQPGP
UniProt Q06187: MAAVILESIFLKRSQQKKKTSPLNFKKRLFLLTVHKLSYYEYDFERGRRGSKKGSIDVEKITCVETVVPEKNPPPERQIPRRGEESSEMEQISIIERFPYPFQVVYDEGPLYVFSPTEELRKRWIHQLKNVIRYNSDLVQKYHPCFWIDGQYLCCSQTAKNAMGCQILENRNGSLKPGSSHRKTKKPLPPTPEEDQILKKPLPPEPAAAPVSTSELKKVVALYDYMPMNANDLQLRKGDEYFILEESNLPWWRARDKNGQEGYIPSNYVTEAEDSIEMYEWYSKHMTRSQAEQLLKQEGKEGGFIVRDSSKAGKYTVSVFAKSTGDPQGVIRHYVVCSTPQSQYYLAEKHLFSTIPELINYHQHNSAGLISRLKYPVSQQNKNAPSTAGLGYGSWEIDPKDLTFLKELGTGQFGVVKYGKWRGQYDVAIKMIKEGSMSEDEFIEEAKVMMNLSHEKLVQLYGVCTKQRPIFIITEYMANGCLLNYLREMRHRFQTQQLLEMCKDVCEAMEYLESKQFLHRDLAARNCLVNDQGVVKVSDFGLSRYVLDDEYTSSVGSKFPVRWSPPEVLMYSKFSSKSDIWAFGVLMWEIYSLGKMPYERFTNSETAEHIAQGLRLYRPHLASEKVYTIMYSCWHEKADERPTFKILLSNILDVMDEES
UniProt Q96GD4, whole entry: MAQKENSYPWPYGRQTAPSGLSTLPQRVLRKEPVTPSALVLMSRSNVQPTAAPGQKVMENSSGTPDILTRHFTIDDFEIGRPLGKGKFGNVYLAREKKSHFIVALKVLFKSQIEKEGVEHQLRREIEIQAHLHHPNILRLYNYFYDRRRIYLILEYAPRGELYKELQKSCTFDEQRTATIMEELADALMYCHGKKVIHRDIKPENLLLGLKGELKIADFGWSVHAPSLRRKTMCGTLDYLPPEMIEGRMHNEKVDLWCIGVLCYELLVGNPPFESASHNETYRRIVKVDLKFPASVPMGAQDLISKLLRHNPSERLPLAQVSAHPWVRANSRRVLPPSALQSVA

Columns and labels:
Experiment in all cases: number of time points (of 5) at which kinase-Nluc abundance scored as decreased, DMSO-normalised (count); higher = more persistent destabilization
[1] = compound: N#CC(=Cc1cc(Cl)cc(Cl)c1)c1cccnc1; details: 10 µM; K562; 2-18 h
[2] = compound: NC(=O)c1c(OCc2c(F)cc(Br)cc2F)nsc1NC(=O)NCCCCN1CCCC1; details: 2.5 µM; K562; 2-18 h
Capivasertib = compound: NC1(C(=O)N[C@@H](CCO)c2ccc(Cl)cc2)CCN(c2nc[nH]c3nccc2-3)CC1 [Capivasertib]; details: 10 µM; K562; 2-18 h
Syk Inhibitor II = compound: NCCNc1ncc(C(N)=O)c(Nc2cccc(C(F)(F)F)c2)n1 [Syk Inhibitor II]; details: 10 µM; K562; 2-18 h
[3] = compound: Nc1nc(Nc2ccc(S(N)(=O)=O)cc2)nn1C(=O)c1c(F)cccc1F; details: 2.5 µM; K562; 2-18 h
Miransertib = compound: Nc1ncccc1-c1nc2ccc(-c3ccccc3)nc2n1-c1ccc(C2(N)CCC2)cc1 [Miransertib]; details: 10 µM; K562; 2-18 h
[4] = compound: Nc1ncnc2c1c(-c1cnc3[nH]ccc3c1)nn2C1CCCC1; details: 2.5 µM; K562; 2-18 h
[5] = compound: Nc1ncnc2n[nH]c(-c3ccc(Oc4ccccc4)cc3)c12 [Ibrutinib deacryloylpiperidine]; details: 10 µM; K562; 2-18 h
[6] = compound: O=C(NCCCNc1nc(Nc2cccc(CN3CCOCC3)c2)ncc1C1CC1)C1CCC1; details: 10 µM; K562; 2-18 h
[7] = compound: N[C@H]1CCCCNc2nc(ncc2C(=O)NCc2ccc(F)cc2)NCCCCCCNC1=O; details: 10 µM; K562; 2-18 h

| Target | number of time points [1] | number of time points [2] | number of time points (Capivasertib) | number of time points (Syk Inhibitor II) | number of time points [3] | number of time points (Miransertib) | number of time points [4] | number of time points [5] | number of time points [6] | number of time points [7] |
| --- | --- | --- | --- | --- | --- | --- | --- | --- | --- | --- |
| MAPK4 (UniProt P31152) | 0 | 0 | 0 | 0 | 0 | 0 | 0 | 0 | 0 | – |
| CDK5 (UniProt Q00535) | 0 | 0 | 0 | 0 | 0 | 0 | 0 | 0 | 0 | – |
| CAMK2G (UniProt Q13555) | 0 | 0 | 0 | 0 | 0 | 0 | 1 | 0 | 0 | – |
| FGFR3 (UniProt P22607) | 0 | 0 | 0 | 0 | 0 | 0 | 0 | 0 | 0 | – |
| CSNK1D (UniProt P48730) | 0 | 0 | 0 | 0 | 0 | 1 | 0 | 0 | 0 | – |
| STK38 (UniProt Q15208) | 0 | 0 | 0 | 0 | 0 | 1 | 2 | 0 | 0 | – |
| GSK3A (UniProt P49840) | 0 | 0 | 0 | 0 | 0 | 0 | 0 | 0 | 0 | – |
| LIMK1 (UniProt P53667) | 0 | 0 | 0 | 0 | 0 | 5 | 4 | 0 | 0 | – |
| TYK2 (UniProt P29597) | 0 | 0 | 0 | 0 | 0 | 1 | 4 | 0 | 0 | – |
| CSF1R (UniProt P07333) | 0 | 0 | 0 | 0 | 0 | 0 | 0 | 0 | – | – |
| CDK6 (UniProt Q00534) | 0 | 0 | 0 | 0 | 1 | 0 | 0 | 0 | 0 | – |
| CHEK2 (UniProt O96017) | 1 | 0 | 0 | 0 | 0 | 1 | 0 | 0 | 0 | – |
| PAK4 (UniProt O96013) | 0 | 0 | 0 | 0 | 0 | 0 | 0 | 0 | 0 | – |
| LYN (UniProt P07948) | 0 | 0 | 0 | 0 | 3 | 1 | 0 | 0 | – | – |
| CSNK1A1 (UniProt P48729) | 0 | 0 | 0 | 0 | 0 | 0 | 0 | 0 | 0 | – |
| PLK1 (UniProt P53350) | 0 | 0 | 0 | 0 | 0 | 1 | 3 | 0 | 0 | – |
| DDR1 (UniProt Q08345) | 0 | 0 | 0 | 0 | 0 | 1 | 4 | 1 | 3 | – |
| NTRK3 (UniProt Q16288) | 0 | 0 | 0 | 0 | 0 | 0 | 4 | 0 | 0 | – |
| PTK2 (UniProt Q05397) | 0 | 0 | 0 | 0 | 0 | 0 | 2 | 0 | 0 | – |
| RAF1 (UniProt P04049) | 0 | 0 | 0 | 0 | 0 | 1 | 3 | 0 | 2 | – |
| MAP4K2 (UniProt Q12851) | 0 | 0 | 0 | 0 | 0 | 0 | 0 | 0 | 0 | – |
| CSK (UniProt P41240) | 0 | 0 | 0 | 0 | 0 | 0 | 0 | 0 | 0 | – |

| Target | number of time points [1] | number of time points [2] | number of time points (Capivasertib) | number of time points (Syk Inhibitor II) | number of time points [3] | number of time points (Miransertib) | number of time points [4] | number of time points [5] | number of time points [6] | number of time points [7] |
| --- | --- | --- | --- | --- | --- | --- | --- | --- | --- | --- |
| CDK2 (UniProt P24941) | 0 | 0 | 0 | 0 | 1 | 0 | 0 | 0 | 0 | – |
| LIMK2 (UniProt P53671) | 0 | 0 | 0 | 0 | 0 | 2 | 3 | 0 | 0 | – |
| FGFR2 (UniProt P21802) | 0 | 0 | 0 | 0 | 0 | 2 | 3 | 0 | 0 | – |
| MKNK1 (UniProt Q9BUB5) | 0 | 0 | 0 | 0 | 0 | 2 | 0 | 0 | 0 | – |
| HER2 (UniProt P04626) | 0 | 0 | 0 | 0 | 0 | 0 | 0 | 0 | 1 | – |
| EPHA2 (UniProt P29317) | 0 | 0 | 0 | 0 | 0 | 0 | 0 | 0 | 0 | – |
| MAP2K1 (UniProt Q02750) | 0 | 0 | 0 | 0 | 0 | 0 | 0 | 0 | 0 | – |
| SPHK1 (UniProt Q9NYA1) | 0 | 0 | 0 | 0 | 0 | 0 | 0 | 0 | 0 | – |
| ALK (UniProt Q9UM73) | 0 | 0 | 0 | 0 | 0 | 2 | 0 | 0 | 0 | – |
| ZAK (UniProt Q9NYL2) | – | 0 | 0 | 0 | 0 | 0 | 0 | 0 | 0 | – |
| BRAF_V600E | – | 0 | 0 | 0 | 0 | – | 3 | 0 | 0 | 0 |
| ERN1 (UniProt O75460) | – | 0 | 0 | 0 | 0 | 0 | 0 | 0 | 0 | – |
| CDK3 (UniProt Q00526) | – | 0 | 0 | 0 | 0 | 0 | 0 | 0 | 0 | – |
| CDK10 (UniProt Q15131) | – | 0 | 0 | 0 | 0 | 0 | 0 | 0 | 0 | – |
| RET_M918T (clone: RET_mut) (UniProt P07949) | 0 | – | 0 | 0 | 0 | 0 | 1 | 0 | 0 | – |
| BMX (UniProt P51813) | 0 | 0 | 0 | 0 | – | 1 | 3 | 0 | 0 | – |
| BLK (UniProt P51451) | 0 | – | 0 | 0 | 0 | 1 | 1 | 0 | 0 | – |
| YES1 (UniProt P07947) | – | 0 | 0 | 0 | 0 | 0 | 0 | 0 | 0 | – |
| BTK (UniProt Q06187) | 0 | 0 | 0 | 0 | 0 | 0 | – | 0 | 0 | – |
| LCK (UniProt P06239) | – | 0 | 0 | 0 | 0 | 0 | 0 | 0 | 0 | – |
| AURKB (UniProt Q96GD4) | 0 | 0 | 0 | 0 | – | 4 | 1 | 0 | 0 | – |
| FGFR1 (UniProt P11362) | 0 | 0 | 0 | 0 | – | 1 | 0 | 0 | 0 | – |

An excerpt of these results, with bars between the fields.
Target | number of time points [1] | number of time points [2] | number of time points (Capivasertib) | number of time points (Syk Inhibitor II) | number of time points [3] | number of time points (Miransertib) | number of time points [4] | number of time points [5] | number of time points [6] | number of time points [7]
ZAK (UniProt Q9NYL2) | – | 0 | 0 | 0 | 0 | 0 | 0 | 0 | 0 | –
BRAF_V600E | – | 0 | 0 | 0 | 0 | – | 3 | 0 | 0 | 0
ERN1 (UniProt O75460) | – | 0 | 0 | 0 | 0 | 0 | 0 | 0 | 0 | –
CDK3 (UniProt Q00526) | – | 0 | 0 | 0 | 0 | 0 | 0 | 0 | 0 | –
CDK10 (UniProt Q15131) | – | 0 | 0 | 0 | 0 | 0 | 0 | 0 | 0 | –
RET_M918T (clone: RET_mut) (UniProt P07949) | 0 | – | 0 | 0 | 0 | 0 | 1 | 0 | 0 | –
BMX (UniProt P51813) | 0 | 0 | 0 | 0 | – | 1 | 3 | 0 | 0 | –
BLK (UniProt P51451) | 0 | – | 0 | 0 | 0 | 1 | 1 | 0 | 0 | –
YES1 (UniProt P07947) | – | 0 | 0 | 0 | 0 | 0 | 0 | 0 | 0 | –
BTK (UniProt Q06187) | 0 | 0 | 0 | 0 | 0 | 0 | – | 0 | 0 | –
LCK (UniProt P06239) | – | 0 | 0 | 0 | 0 | 0 | 0 | 0 | 0 | –
